Results from patent US7183376.
These are yes or no findings as the source states them, for the method shown. Some results given as binding are weak or reduced against the parent protein; the word gives no strength.

Sequences of proteins named here, by UniProt entry; tags and fusion partners are left off. Residues count along the entry.
UniProt P10747, residues 19-152: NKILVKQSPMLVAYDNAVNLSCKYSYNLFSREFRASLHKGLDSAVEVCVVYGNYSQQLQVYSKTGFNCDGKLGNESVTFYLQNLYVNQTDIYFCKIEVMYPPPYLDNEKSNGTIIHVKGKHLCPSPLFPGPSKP
UniProt P16410, residues 36-161: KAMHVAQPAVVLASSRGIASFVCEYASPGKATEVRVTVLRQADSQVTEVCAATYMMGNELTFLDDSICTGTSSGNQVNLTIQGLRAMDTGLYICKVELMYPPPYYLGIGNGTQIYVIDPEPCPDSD

How the values were obtained:
[1] = target: soluble CD28-Ig Fc fusion protein (extracellular domain of human CD28 and Fc portion of human IgG1; R&D Systems) (human) (UniProt P10747); experiment: flow cytometry of transfected cells with labeled receptor-Ig
[2] = target: soluble CTLA-4-Ig Fc fusion protein (extracellular domain of human CTLA-4 and Fc portion of human IgG1; R&D Systems) (human) (UniProt P16410); experiment: as above

binding [1]: binds | binding [2]: binds
B1: Round 1 CD28BP-118 (Clone 118) (ligand)
chain: GISQVTKSVKEMAALSCDYNISIDELARMRIYWQKDQQMVLSIISGQVEVWPEYKNRTFPDIINNLSLMILALRLSDKGTYTCVVQKNENGSFRREHLTSVTLSIRADFPVPSITDIGHPAPNVKRIRCSASGDFPEPRLAWMEDGEELNAVNTTVDQDLDTELYSVSSELDFNVTNNHSIVCLIKYGELSVSQIFPWSKPKQEPPIDQLPFWVIIPVSGALVLTAVVLYCLACRHVARWKRTRRNEETVGTERLSPIYLGSAQSSG
